Results as given in patent US12605451B2, “Targeted plasma protein degradation” (Novartis AG, priority 2020, dated 2026).
At least one structure is not confirmed: it was looked up by name or label, or the drawing left a doubt.

Experiments:
FHR3 = molecular target: T1, FHR3 (Homo sapiens, UniProt Q02985); experiment: SPR binding to biotinylated FHR3 (Proteon XPR36); conditions: Bifunctional Compound
T1 construct: Purified FHR3 with C-terminal biotinylated Avitag was used for the assay
T1 sequence (Q02985 19-330): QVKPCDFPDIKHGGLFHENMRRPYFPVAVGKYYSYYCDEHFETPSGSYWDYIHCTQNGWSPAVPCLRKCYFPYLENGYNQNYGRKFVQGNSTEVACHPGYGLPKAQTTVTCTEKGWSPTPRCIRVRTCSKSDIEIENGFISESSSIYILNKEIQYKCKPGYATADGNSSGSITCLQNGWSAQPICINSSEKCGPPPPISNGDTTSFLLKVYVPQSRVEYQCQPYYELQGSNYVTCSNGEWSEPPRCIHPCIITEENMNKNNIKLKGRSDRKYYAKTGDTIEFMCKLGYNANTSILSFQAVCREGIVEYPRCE
Method: SPR was used to obtain the binding data for FHR3 receptor ligands compounds (C12), (C13), (C14), (C15) and (C16), either alone or as part of the bifunctional compounds (BFC13), (BFC14), (BFC15), (BFC16) and (BFC17), respectively.
SPR Binding experiments were performed on a Proteon XPR36 instrument (Bio-Rad Laboratories). Purified FHR3 with C-terminal biotinylated Avitag was used for the assay. Biotinylated FHR3 was incubated with fivefold molar excess of bifunctional compounds (BFC13), (BFC14), (BFC15), (BFC16) or (BFC17), or compounds (C12), (C13), (C14), (C15) or (C16), and immobilized onto a Neutravidin coated sensor chip. (NLC chip, Bio-Rad Laboratories, Inc). […]
To perform sandwich SPR binding assays, His-ASGPR1 (62-291) protein stocks were diluted with running buffer to a desired concentration. […] Sensorgrams were recorded for association and dissociation phases. All sensorgrams were processed by subtracting the binding response recorded from a blank control surfaces (or interspot surfaces), followed by subtracting buffer blank injections from the reaction surface. […]

human ASGPR1 = molecular target: T2, human ASGPR1 (Homo sapiens, UniProt P07306); experiment: ASGPR1 SPR direct binding (Biacore, SA chip); conditions: Bifunctional Compound (FHR3 series), Table 7, read-out: ASGRR KD
T2 construct: Recombinant extracellular domain of human ASGPR1 with N-terminal biotinylated Avitag
T2 sequence (P07306 62-291 limits assumed): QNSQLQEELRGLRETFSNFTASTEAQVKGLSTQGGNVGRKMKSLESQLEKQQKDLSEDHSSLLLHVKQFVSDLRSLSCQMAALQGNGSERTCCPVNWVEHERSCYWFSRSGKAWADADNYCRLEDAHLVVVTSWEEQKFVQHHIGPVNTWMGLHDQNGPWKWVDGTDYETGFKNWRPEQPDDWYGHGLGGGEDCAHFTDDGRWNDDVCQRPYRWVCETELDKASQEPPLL
Method: SPR was used to obtain the binding data for ASGP receptor ligand compound (int-CC2), either alone or as part of the bifunctional compounds (BFC-13), (BFC-15) and (BFC16).
ASGPR1 SPR experiments were performed on either Biacore T200 or Biacore 8K. The assay was optimized for Biacore (Streptavidin) SA chip in running buffer consisting of 20 mM HEPES, 300 mM NaCl, 2 mM CaCl2, 0.01% tween-20, 2% DMSO, pH 7.4. Recombinant extracellular domain of human ASGPR1 with N-terminal biotinylated Avitag was diluted to 20 μg/mL in running buffer, and immobilized onto SA chip after it was preconditioned with at least four 60-second injections at 30 uL/min of 1 M NaCl/40 mM NaOH solution. Protein immobilization level varied from 500 RU to 3500 RU dependent on analytes' molecular weight, for targeted Rmax of 30 RUs. Direct binding of analytes to ASGPR1 was observed when a dose response titration of analytes in 2% DMSO was flown over the immobilized protein. Data analysis was done on either Biacore T200 Evaluation Software or Biacore Insight Evaluation Software.
SPR was used to obtain the binding data for ASGP receptor ligand compounds (int-CC2), either alone or as part of the bifunctional compounds (BFC1).
ASGPR1 SPR experiments were performed on either Biacore T200 or Biacore 8K. […]

## CC(=O)N[C@H]1[C@H](OCCCCC(=O)NCCCNC(=O)CCOCC(COCCC(=O)NCCCNC(=O)CCCCO[C@@H]2O[C@H](CO)[C@H](O)[C@H](O)[C@H]2NC(C)=O)(COCCC(=O)NCCCNC(=O)CCCCO[C@@H]2O[C@H](CO)[C@H](O)[C@H](O)[C@H]2NC(C)=O)NC(=O)CCOCCOCCOCCOCCOCCOCCOCCOCCOCCC(=O)NCCCC[C@@H]2NC(=O)[C@H](CO)NC(=O)[C@H](Cc3ccccc3)N(C)C(=O)[C@H](CCCNC(=N)N)NC(=O)[C@H](Cc3ccccc3)NC(=O)CSC[C@@H](C(=O)NCC(N)=O)NC(=O)[C@H](Cc3ccccc3)N(C)C(=O)[C@H](CC(N)=O)NC(=O)[C@@H]3Cc4ccccc4CN3C(=O)[C@H](CC(=O)O)NC(=O)[C@H](CCCNC(=N)N)NC(=O)CN(C)C(=O)[C@H](Cc3ccc(O)cc3)NC(=O)[C@H](CC(N)=O)NC2=O)O[C@H](CO)[C@H](O)[C@@H]1O [BFC-13]
FHR3
  Kd: 20 nM
Human ASGPR1
  Kd: 0.44 nM
